## Screening data

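A panel of P. falciparum strains inside erythrocytes is exposed to compounds for three days, then a DNA-binding dye reports the amount of parasite DNA.
Each compound was titrated across a series from about 0.000037 to 29 µM.
The number is the fitted AC50, the concentration giving a half-maximal change in signal; a lower value means higher potency, whether the curve shows a decrease or an increase.
Calls follow the curve class and fit quality: every row here is inconclusive, covering signal-raising curves and weak, poorly fitted, partial or highest-dose-only inhibition curves.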

Values are in µM.
Every entry below has the call inconclusive.
These entries are mostly ones the record files as inconclusive; other results of the assay are not listed here.
A potency from a partial, single-point or poor curve is only a rough figure.

structure,tested on / at,fitted potency (µM),curve as filed
CCOC(=O)C1=C[C@]2(CC)CCCN3CCc4c(n1c1ccccc41)[C@@H]32,CP266,21.33,"inhibitor, partial curve, poor fit"
CCOC(=O)C1=C[C@]2(CC)CCCN3CCc4c(n1c1ccccc41)[C@@H]32,CP325,19.01,"inhibitor, single point"
CCOC(=O)C1=C[C@]2(CC)CCCN3CCc4c(n1c1ccccc41)[C@@H]32,CP286,17.78,"inhibitor, single point"
CCOC(=O)C1=C[C@]2(CC)CCCN3CCc4c(n1c1ccccc41)[C@@H]32,CP268,13.46,"inhibitor, single point"
CCOC(=O)C1=C[C@]2(CC)CCCN3CCc4c(n1c1ccccc41)[C@@H]32,CP192,12,"inhibitor, partial curve, poor fit"
CCOC(=O)C1=C[C@]2(CC)CCCN3CCc4c(n1c1ccccc41)[C@@H]32,DFO2036,10,"inhibitor, single point"
CCOC(=O)C1=C[C@]2(CC)CCCN3CCc4c(n1c1ccccc41)[C@@H]32,CP329,19.01,"inhibitor, single point"
CCOC(=O)C1=C[C@]2(CC)CCCN3CCc4c(n1c1ccccc41)[C@@H]32,CP335,16.94,"inhibitor, single point"
CCOC(=O)C1=C[C@]2(CC)CCCN3CCc4c(n1c1ccccc41)[C@@H]32,CP291,15.1,"inhibitor, single point"
NC1=NC(=O)N2CC12 (configuration not stated),Dd2,12.59,"inhibitor, single point"
NC1=NC(=O)N2CC12 (configuration not stated),PC26,8.492,"inhibitor, single point"
NC1=NC(=O)N2CC12 (configuration not stated),GB4,13.46,"inhibitor, single point"
NC1=NC(=O)N2CC12 (configuration not stated),CP268,10.69,"inhibitor, partial curve, poor fit"
NC1=NC(=O)N2CC12 (configuration not stated),AS120,17.78,"inhibitor, single point"
NC1=NC(=O)N2CC12 (configuration not stated),PAD,11.22,"inhibitor, single point"
NC1=NC(=O)N2CC12 (configuration not stated),CP237,1.122,"inhibitor, single point"
NC1=NC(=O)N2CC12 (configuration not stated),CP305,13.46,"inhibitor, partial curve, poor fit"
NC1=NC(=O)N2CC12 (configuration not stated),CP256,11.22,"inhibitor, single point"
NC1=NC(=O)N2CC12 (configuration not stated),CP269,8.492,"inhibitor, single point"
NC1=NC(=O)N2CC12 (configuration not stated),CP286,10,"inhibitor, single point"
NC1=NC(=O)N2CC12 (configuration not stated),ECU,10,"inhibitor, partial curve"
NC1=NC(=O)N2CC12 (configuration not stated),CP335,19.01,"inhibitor, single point"
NC1=NC(=O)N2CC12 (configuration not stated),CP211,12,"inhibitor, single point"
NC1=NC(=O)N2CC12 (configuration not stated),P94_40,10,"inhibitor, single point"
NC1=NC(=O)N2CC12 (configuration not stated),CP247,11.22,"inhibitor, single point"
NC1=NC(=O)N2CC12 (configuration not stated),CP265,17.78,"inhibitor, single point"
NC1=NC(=O)N2CC12 (configuration not stated),DFO2036,5.012,"inhibitor, partial curve, poor fit"
NC1=NC(=O)N2CC12 (configuration not stated),C2A,7.943,"inhibitor, partial curve"
NC1=NC(=O)N2CC12 (configuration not stated),CP262,19.01,"inhibitor, single point"
NC1=NC(=O)N2CC12 (configuration not stated),HB3,12.59,"inhibitor, single point"
NC1=NC(=O)N2CC12 (configuration not stated),CP291,13.46,"inhibitor, partial curve, poor fit"
NC1=NC(=O)N2CC12 (configuration not stated),CP185,8.912,"inhibitor, single point"
NC1=NC(=O)N2CC12 (configuration not stated),CP217,11.22,"inhibitor, single point"

3 of the entries, repeated:

* NC1=NC(=O)N2CC12 (configuration not stated) [CP305] : fitted potency 13.46 µM (inhibitor, partial curve, poor fit)
* CCOC(=O)C1=C[C@]2(CC)CCCN3CCc4c(n1c1ccccc41)[C@@H]32 [CP291] : fitted potency 15.1 µM (inhibitor, single point)
* CCOC(=O)C1=C[C@]2(CC)CCCN3CCc4c(n1c1ccccc41)[C@@H]32 [CP192] : fitted potency 12 µM (inhibitor, partial curve, poor fit)

Data taken from PubChem BioAssay AID504749, deposited by NCATS (2011).